# Results taken from PubChem BioAssay AID540256 (National Center for Advancing Translational Sciences (NCATS), 2011).
# Among all 300,000 compounds or so, about 3,700 (1.2%) were called active. The inconclusive results got no clear call from the source; some entries with a clear call stand among them for comparison. Calls come from the whole dose curve; tested in HEK293 cells. Potencies of inconclusive entries are doubtful fits and often do not repeat.
# Assay: qHTS for Inhibitors of binding or entry into cells for Lassa Virus; note: nearly all actives have a fitted effect of over 50% in size
# Conditions: Lassa virus pseudotype entry inhibition, cell reporter; series mostly up to 37.9 µM
# Potency is the fitted concentration of half-maximal effect.
row,Compound,Potency
1,O=C(NCc1ccc2c(c1)OCO2)c1cc(COc2c(F)cccc2F)on1,"inconclusive: 22.4 µM [inhibitor, partial curve, poor fit]"
2,Oc1c(N=Nc2ccccn2)ccc2ccccc12,active: 1.58 µM
3,COc1ccc(OC)c(NS(=O)(=O)c2ccc3[nH]c4c(c3c2)CCCCC4)c1,inactive
4,CCOc1ccccc1NC(=O)c1nc2nc(C)cc(C(F)F)n2n1,inactive
5,COc1cccc(N2CCN(C(=O)C3CCN(S(=O)(=O)c4c(C)noc4C)CC3)CC2)c1,inactive
6,COc1ccc(S(=O)(=O)N(CCCN2CCCC2=O)Cc2cc3c(C)ccc(C)c3[nH]c2=O)cc1,"inconclusive: 8.91 µM [inhibitor, partial curve]"
7,C#CC1(O)C(OC)=CC2C(=O)C1C(c1ccccc1)C2C (centres undefined),"inconclusive: 1.19 µM [inhibitor, single point]"
8,CC1CCc2c(sc(NC(=O)CSc3ncnc4c3cnn4-c3ccccc3Cl)c2C#N)C1 (centres undefined),"inconclusive: 23.1 µM [inhibitor, partial curve, poor fit]"
9,O=C(O)c1ccc(/C=C/c2ccc3cccc(O)c3n2)cc1,"inconclusive: 35.5 µM [inhibitor, single point]"
10,CC(=O)c1cccc(NC(=S)Nc2ccn(Cc3cccc4ccccc34)n2)c1,"inconclusive: 11.2 µM [inhibitor, partial curve, poor fit]"
11,N#CSC(c1ccccc1)c1nc2ccccc2[nH]c1=O (centres undefined),"inconclusive: 17.8 µM [inhibitor, single point]"
12,Cc1cccc(NC(=O)Cn2nnc(C(=O)Nc3ccccc3Br)c2N)c1C,inactive
13,Cn1cc(C(=O)NCc2ccccc2)c(=O)c2cc(S(=O)(=O)N3CCOCC3)ccc21,inactive
14,O=C(CNC(=S)N(Cc1ccccc1)Cc1cccnc1)NC1CCCC1,inactive
15,Cc1ccccc1C(C(=O)NC1CCCC1)N(C(=O)Cc1cccs1)c1ccc2c(c1)OCCO2 (centres undefined),"inconclusive: 9.2 µM [inhibitor, partial curve]"
16,COc1ccc(S(=O)(=O)Nc2ccccc2OC)cc1NC(=O)c1cc2ccccc2oc1=O,"inconclusive: 6.31 µM [activator, single point]"
17,O=C(c1cc2nc(-c3ccccc3)cc(C(F)(F)F)n2n1)N1CCOCC1,"inconclusive: 6.51 µM [activator, partial curve, poor fit]"
18,COc1cccc(CN2CCNCC2)c1OC,"inconclusive: 3.16 µM [inhibitor, single point]"
19,Cc1ccc(Cl)cc1NC(=O)CC(O)(C(F)(F)F)C(F)(F)F,"inconclusive: 29.1 µM [inhibitor, single point]"

# Reformatted with bars between the fields: 2 of the compounds above
row | Compound | Potency
2 | Oc1c(N=Nc2ccccn2)ccc2ccccc12 | active: 1.58 µM
3 | COc1ccc(OC)c(NS(=O)(=O)c2ccc3[nH]c4c(c3c2)CCCCC4)c1 | inactive
